The target of experiment [1] is ASK1 SAM domain F1369Q (human) (UniProt Q99683). The experiment can be described thus: SEC. In general terms: SEC sorts molecules by how far they enter the pores of the column.
In another experiment the target is T1, GST-ASK2 SAM domain (human, UniProt O95382 1216-1288).
T1 sequence (looked up): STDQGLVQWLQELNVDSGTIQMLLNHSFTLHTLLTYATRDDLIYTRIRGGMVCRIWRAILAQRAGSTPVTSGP
Description: pull-down.

For experiment [2], the target named is T2, ASK1(C1360E) SAM domain (human) (UniProt Q99683).
T2 sequence: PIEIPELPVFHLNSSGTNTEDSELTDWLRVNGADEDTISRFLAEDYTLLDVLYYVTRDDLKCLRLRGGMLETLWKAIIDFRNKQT
Description: SEC.

The target of experiment [3] is T3, GST-ASK3 SAM domain (human) (UniProt Q6ZN16).
T3 sequence: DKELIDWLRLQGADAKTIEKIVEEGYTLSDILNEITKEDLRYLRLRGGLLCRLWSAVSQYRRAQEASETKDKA
The experiment can be described thus: pull-down.

For experiment [4], the target named is T4, ASK1(1290–1374), C-terminal SAM domain of ASK1 (human) (UniProt Q99683).
T4 sequence: T2 sequence with E71C
Description: SEC.

Experiment [5] addresses T5, GST-ASK1 SAM domain (human) (UniProt Q99683).
T5 sequence: T2 sequence with E71C
Description: pull-down.

Where a chain is given by its changes, count along the chain named. Names may count otherwise. Results are given in words; binding and its absence hold for the method and conditions named. Some results given as binding are weak or reduced against the parent protein; the word gives no strength. For some of these results: Sequences can lack the tags named with a protein.

B1: ASK1 SAM domain F1369Q (domain or fragment, UniProt Q99683 1290-1374)
chain: T2 sequence with E71C, F80Q
For the molecule B1, in experiment [1], the binding entry is recorded as “binds weakly”.

B2: ASK1(C1360E) SAM domain (domain or fragment, UniProt Q99683 1290-1374)
chain: T2 sequence
For the molecule B2, the binding entry in the experiment with GST-ASK2 SAM domain is given as “no binding”.

B3: ASK2(1216–1288), C-terminal SAM domain of ASK2 (domain or fragment, UniProt O95382 1216-1288)
chain: T1 sequence (looked up)
With B3, the binding result in experiment [2] is on record as “no binding”; in experiment [3] it was “binds weakly”.

B4: ASK2(C1268E) SAM domain (domain or fragment, UniProt O95382 1216-1288)
chain: T1 sequence (looked up) with C53E
Regarding B4, the binding entry in experiment [4] and in experiment [5] was “no binding” in each case.

B5: ASK3(1241–1313), C-terminal SAM domain of ASK3 (domain or fragment, human, UniProt Q6ZN16 1241-1313, looked up)
chain: T3 sequence
Turning to B5, the binding entry in experiment [3] was “binds weakly”.
